Measurements from paper doi:10.1101/2023.07.25.550368.
No constants are given. Whether binding was seen depends on the method and setting. In cells and extracts the contact can be indirect. Some entries that bind do so weakly or less than the wild type.

The chains behind the UniProt entries cited, without tags or fusion partners.
UniProt Q96KQ7: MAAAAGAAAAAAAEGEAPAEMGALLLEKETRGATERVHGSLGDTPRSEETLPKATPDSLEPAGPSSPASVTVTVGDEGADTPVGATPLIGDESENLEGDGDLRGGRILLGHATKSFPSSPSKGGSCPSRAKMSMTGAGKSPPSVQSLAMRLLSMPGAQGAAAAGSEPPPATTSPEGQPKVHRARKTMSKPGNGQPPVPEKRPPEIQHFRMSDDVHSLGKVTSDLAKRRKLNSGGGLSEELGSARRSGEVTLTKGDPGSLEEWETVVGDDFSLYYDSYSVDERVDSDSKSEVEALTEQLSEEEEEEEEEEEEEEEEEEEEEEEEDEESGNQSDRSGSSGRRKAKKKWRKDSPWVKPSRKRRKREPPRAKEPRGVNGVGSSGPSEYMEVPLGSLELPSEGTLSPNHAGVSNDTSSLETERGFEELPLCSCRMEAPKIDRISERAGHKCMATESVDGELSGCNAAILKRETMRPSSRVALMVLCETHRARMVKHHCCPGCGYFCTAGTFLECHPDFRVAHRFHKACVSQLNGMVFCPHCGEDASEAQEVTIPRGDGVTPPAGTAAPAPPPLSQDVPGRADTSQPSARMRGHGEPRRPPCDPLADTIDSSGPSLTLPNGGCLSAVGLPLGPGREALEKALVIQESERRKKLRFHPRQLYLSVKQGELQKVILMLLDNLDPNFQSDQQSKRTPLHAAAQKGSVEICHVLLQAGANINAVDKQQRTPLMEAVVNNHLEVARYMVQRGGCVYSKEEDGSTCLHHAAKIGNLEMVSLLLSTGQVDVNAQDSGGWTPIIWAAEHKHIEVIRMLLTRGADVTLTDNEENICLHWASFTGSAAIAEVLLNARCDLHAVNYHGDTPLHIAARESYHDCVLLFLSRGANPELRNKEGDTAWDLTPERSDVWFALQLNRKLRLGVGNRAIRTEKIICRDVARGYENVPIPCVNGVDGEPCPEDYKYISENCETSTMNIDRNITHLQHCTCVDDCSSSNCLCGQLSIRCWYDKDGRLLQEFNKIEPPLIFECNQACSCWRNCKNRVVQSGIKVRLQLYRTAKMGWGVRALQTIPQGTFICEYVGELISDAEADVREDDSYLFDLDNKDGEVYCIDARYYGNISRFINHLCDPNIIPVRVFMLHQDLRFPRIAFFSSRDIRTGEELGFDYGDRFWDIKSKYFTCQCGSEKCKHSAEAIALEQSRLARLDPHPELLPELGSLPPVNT
UniProt P03372: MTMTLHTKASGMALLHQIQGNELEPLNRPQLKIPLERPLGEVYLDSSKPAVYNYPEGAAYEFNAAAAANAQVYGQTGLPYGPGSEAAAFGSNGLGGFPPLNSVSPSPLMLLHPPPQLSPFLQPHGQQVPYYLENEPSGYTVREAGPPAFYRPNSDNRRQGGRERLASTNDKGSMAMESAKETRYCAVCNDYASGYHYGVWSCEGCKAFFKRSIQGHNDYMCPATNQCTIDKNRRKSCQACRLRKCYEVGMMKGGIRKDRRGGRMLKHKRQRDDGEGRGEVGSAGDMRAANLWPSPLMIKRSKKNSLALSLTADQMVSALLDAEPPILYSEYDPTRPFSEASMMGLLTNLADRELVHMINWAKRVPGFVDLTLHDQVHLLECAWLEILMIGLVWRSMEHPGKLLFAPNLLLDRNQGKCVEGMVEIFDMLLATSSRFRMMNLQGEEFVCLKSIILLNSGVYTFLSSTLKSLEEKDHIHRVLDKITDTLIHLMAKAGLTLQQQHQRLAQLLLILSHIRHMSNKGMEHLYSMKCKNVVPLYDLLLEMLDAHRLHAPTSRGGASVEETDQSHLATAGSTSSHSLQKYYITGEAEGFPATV

Target: lysine methyl-transferase EHMT2 (also known as G9a or KMT1C) (human (endogenous in Ishikawa)) (UniProt Q96KQ7)
Test: co-IP

## Estrogen Receptor alpha (ERα) (from UniProt P03372 1-595)
  binding: binds
